We go through one substance from article PMC4938201.

Sequences of proteins named here, by UniProt entry; tags and fusion partners are left off. Residues count along the entry.
UniProt O75306, residues 34-463: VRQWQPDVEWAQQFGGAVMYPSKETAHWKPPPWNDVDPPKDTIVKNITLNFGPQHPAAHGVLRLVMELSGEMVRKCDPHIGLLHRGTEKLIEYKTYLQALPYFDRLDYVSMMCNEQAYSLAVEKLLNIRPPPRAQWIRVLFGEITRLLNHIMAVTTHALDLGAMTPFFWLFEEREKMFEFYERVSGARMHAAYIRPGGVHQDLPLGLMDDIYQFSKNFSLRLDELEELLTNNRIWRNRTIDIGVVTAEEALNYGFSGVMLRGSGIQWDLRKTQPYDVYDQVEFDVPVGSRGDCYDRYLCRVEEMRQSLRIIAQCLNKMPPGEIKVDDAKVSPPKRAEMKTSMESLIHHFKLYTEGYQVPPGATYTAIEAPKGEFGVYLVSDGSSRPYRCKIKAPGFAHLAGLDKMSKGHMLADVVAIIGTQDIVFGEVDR
UniProt Q9BU61: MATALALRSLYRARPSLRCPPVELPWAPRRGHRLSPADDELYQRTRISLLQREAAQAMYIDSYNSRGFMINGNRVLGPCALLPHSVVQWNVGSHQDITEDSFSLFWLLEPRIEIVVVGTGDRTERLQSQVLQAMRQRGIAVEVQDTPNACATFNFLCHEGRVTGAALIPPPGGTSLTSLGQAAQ

In this assay the target is peripheral arm subunit NDUFS2 (endogenous in 143B cells) (human (endogenous in 143B)) (UniProt O75306). The experiment in a line: native gel or EMSA; BN-PAGE of inner mitochondrial membrane proteins of 143B cells, Western-blotted and probed with antibodies against NDUFS2 and NDUFAF3; cells treated with negative control siRNA or siRNA for NDUFB3 or NDUFAF5. A general note: In EMSA bound probe runs differently from free probe, usually more slowly.

These are yes or no findings as the source states them, for the method shown. Some entries that bind do so weakly or less than the wild type.

Consider “assembly factor NDUFAF3 (endogenous in 143B cells) (from UniProt Q9BU61 1-184)”, for which the binding entry is on record as “binds”.
